Like-named read-outs stand apart in the source and are kept apart here. No constants are given. Whether binding was seen depends on the method and setting. In cells and extracts the contact can be indirect. Some entries that bind do so weakly or less than the wild type.

Protein sequences, listed by entry. Tags and fused reporters are not part of them.
UniProt E9PZQ0: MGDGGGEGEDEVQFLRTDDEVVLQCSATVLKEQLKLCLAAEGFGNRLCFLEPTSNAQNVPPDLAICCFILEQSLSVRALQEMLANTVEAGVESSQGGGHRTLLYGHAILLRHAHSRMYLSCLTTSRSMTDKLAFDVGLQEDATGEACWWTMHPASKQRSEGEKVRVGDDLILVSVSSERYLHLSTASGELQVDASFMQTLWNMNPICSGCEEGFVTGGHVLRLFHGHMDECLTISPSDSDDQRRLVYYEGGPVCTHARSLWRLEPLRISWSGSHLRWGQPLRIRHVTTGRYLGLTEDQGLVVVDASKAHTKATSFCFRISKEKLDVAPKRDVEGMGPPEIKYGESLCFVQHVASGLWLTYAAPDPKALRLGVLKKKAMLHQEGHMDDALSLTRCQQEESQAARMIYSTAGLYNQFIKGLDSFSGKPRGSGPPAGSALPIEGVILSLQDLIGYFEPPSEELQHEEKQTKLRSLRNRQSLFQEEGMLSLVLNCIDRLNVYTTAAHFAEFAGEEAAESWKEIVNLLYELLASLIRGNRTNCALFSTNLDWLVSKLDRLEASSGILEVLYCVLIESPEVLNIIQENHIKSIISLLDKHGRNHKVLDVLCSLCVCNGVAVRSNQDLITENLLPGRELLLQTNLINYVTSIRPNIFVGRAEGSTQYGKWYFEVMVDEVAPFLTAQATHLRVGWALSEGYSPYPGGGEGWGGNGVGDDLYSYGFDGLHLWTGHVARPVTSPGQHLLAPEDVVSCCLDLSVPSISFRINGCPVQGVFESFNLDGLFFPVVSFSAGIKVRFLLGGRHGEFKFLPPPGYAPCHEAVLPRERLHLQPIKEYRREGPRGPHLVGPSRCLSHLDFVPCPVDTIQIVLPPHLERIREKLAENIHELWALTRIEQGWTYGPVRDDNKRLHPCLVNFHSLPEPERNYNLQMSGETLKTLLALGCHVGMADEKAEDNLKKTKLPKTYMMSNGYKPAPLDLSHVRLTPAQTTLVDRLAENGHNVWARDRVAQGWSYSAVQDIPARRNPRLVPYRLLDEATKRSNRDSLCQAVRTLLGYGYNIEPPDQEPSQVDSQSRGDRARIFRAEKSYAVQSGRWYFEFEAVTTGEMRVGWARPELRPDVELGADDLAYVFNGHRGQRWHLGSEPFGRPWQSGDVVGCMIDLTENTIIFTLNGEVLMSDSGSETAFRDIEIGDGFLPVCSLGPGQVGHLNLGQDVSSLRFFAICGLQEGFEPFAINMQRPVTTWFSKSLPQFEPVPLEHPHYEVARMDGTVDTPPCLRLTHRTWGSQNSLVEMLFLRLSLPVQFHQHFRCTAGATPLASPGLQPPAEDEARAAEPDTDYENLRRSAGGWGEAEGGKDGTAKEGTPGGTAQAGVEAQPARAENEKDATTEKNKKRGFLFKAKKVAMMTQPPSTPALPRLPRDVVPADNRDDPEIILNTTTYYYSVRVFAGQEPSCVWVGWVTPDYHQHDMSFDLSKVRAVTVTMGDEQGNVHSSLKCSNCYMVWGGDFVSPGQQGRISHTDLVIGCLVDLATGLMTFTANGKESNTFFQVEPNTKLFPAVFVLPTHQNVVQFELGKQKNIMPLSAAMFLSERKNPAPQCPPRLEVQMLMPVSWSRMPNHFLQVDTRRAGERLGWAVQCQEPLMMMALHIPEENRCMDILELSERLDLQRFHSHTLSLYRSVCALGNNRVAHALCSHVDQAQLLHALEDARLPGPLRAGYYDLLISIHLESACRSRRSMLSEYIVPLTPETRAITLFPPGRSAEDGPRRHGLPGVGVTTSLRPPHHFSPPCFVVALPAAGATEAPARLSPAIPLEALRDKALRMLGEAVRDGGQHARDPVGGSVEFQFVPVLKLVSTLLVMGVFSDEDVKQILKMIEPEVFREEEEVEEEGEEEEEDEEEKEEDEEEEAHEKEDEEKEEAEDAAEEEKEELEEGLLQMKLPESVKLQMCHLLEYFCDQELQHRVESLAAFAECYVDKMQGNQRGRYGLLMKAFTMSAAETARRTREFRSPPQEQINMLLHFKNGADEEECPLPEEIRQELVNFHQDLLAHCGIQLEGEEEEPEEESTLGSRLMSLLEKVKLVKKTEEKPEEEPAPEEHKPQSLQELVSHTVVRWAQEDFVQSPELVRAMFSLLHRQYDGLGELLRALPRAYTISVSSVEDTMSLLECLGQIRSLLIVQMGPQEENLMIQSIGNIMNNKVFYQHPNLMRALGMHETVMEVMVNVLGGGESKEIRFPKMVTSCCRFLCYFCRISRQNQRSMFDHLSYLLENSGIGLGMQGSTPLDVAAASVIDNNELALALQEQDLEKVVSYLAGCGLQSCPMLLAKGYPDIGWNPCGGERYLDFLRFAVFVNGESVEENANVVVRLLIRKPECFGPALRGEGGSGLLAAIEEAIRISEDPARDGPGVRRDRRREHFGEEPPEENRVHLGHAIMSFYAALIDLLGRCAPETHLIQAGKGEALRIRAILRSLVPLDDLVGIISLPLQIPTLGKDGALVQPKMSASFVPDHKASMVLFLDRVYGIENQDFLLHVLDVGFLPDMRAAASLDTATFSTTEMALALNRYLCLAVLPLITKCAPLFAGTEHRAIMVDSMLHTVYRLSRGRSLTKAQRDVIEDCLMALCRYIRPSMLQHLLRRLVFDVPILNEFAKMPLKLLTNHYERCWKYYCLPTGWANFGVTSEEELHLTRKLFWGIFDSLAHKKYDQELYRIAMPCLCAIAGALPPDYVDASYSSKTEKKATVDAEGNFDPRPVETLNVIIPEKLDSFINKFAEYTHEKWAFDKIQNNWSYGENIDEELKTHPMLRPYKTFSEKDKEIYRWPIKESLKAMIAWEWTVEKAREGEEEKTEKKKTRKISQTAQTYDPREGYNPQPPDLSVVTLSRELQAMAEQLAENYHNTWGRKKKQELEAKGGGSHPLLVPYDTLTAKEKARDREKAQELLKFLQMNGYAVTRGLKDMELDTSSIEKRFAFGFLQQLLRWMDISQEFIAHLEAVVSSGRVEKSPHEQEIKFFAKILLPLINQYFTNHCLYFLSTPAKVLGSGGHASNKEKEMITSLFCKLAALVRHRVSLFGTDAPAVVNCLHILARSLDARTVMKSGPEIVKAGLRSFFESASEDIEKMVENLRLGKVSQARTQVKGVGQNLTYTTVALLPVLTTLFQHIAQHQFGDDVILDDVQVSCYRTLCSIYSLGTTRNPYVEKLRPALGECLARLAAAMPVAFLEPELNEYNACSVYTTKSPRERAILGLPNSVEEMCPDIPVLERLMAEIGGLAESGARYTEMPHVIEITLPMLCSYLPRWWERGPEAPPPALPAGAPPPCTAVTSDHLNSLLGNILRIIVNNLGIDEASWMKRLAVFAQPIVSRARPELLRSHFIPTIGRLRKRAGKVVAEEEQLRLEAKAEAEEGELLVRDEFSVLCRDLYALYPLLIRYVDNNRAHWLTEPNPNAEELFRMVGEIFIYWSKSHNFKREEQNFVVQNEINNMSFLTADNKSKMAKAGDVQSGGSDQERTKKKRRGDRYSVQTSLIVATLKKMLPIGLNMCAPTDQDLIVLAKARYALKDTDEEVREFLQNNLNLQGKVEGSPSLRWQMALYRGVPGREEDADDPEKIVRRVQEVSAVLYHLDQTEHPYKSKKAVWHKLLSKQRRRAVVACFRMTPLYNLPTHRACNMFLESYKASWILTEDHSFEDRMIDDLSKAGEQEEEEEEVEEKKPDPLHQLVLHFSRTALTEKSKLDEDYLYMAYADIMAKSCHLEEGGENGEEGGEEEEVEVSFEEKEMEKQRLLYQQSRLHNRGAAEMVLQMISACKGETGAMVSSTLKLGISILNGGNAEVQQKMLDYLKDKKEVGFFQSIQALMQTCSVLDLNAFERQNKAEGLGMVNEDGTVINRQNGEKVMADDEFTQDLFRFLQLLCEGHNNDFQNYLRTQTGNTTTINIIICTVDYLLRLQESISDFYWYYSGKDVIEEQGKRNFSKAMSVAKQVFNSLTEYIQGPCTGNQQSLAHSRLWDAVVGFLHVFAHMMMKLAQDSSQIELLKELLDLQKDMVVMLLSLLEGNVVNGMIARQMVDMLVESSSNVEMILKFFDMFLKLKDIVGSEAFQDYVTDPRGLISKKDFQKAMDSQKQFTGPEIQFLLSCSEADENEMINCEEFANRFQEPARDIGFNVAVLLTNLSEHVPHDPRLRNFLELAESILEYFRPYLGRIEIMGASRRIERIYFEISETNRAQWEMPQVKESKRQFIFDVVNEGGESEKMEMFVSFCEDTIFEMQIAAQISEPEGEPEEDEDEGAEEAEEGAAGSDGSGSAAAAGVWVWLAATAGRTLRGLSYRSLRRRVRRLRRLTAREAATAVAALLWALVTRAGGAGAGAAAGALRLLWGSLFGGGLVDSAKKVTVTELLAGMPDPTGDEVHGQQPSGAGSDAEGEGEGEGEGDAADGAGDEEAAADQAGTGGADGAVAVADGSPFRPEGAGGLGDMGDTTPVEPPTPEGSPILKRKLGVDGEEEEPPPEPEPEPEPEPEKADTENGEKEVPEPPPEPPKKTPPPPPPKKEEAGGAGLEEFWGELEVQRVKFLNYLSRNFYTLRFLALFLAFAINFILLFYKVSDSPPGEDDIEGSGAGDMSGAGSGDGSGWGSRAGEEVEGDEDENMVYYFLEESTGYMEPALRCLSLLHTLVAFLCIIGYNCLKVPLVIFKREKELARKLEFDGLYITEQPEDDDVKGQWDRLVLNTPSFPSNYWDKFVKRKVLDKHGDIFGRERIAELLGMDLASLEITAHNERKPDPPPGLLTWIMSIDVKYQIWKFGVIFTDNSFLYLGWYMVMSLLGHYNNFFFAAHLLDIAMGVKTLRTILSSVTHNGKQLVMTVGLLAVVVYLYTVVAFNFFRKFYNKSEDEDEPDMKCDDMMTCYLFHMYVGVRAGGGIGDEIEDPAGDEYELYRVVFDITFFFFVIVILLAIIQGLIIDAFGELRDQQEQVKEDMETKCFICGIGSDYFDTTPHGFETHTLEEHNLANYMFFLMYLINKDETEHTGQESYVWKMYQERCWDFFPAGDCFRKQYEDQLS
UniProt P26883: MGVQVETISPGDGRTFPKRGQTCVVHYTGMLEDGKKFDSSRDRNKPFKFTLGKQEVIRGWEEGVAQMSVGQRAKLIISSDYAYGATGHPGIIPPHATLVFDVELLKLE

Experiment [1] deals with ryanodine receptor calcium (Ca2+) release channel (RyR1) (mouse (endogenous in Balb/c EDL muscle)) (UniProt E9PZQ0). As to the kind of experiment: co-IP; RyR1 immunoprecipitated (anti-RyR1 5029) from EDL muscle of non-tumor control mice and of mice with 4T1 OCIB (4 weeks after inoculation); immunoblots for calstabin and Nox4, quantified on the Odyssey system; procedure as in ref. 9. Background: Immunoblotting shows a protein as a band on a membrane.

For experiment [2] the target is unchanged. The experiment is described as above. The source holds these as a separate data set.

On to “calstabin1 (also known as FKBP12) (from UniProt P26883 1-108)”, for which, in experiment [1], the binding entry is listed as “binds”.

B1: NADPH oxidase 4 (Nox4) (enzyme, UniProt Q9JHI8 1-578)
chain: MAVSWRSWLANEGVKHLCLLIWLSLNVLLFWKTFLLYNQGPEYYYIHQMLGLGLCLSRASASVLNLNCSLILLPMCRTVLAYLRGSQKVPSRRTRRLLDKSKTLHITCGVTICIFSGVHVAAHLVNALNFSVNYSEDFLELNAARYQNEDPRKLLFTTIPGLTGVCMVVVLFLMVTASTYAIRVSNYDIFWYTHNLFFVFYMLLLLHVSGGLLKYQTNVDTHPPGCISLNQTSSQNMSIPDYVSEHFHGSLPRGFSKLEDRYQKTLVKICLEEPKFQAHFPQTWIWISGPLCLYCAERLYRCIRSNKPVTIISVINHPSDVMELRMIKENFKARPGQYIILHCPSVSALENHPFTLTMCPTETKATFGVHFKVVGDWTERFRDLLLPPSSQDSEILPFIHSRNYPKLYIDGPFGSPFEESLNYEVSLCVAGGIGVTPFASILNTLLDDWKPYKLRRLYFIWVCRDIQSFQWFADLLCVLHNKFWQENRPDFVNIQLYLSQTDGIQKIIGEKYHTLNSRLFIGRPRWKLLFDEIAKCNRGKTVGVFCCGPSSISKTLHSLSNRNNSYGTKFEYNKESFS
Take B1: the binding entry in experiment [2] is on record as “binds”.

For the origin of these results see publication PMC5742151.
